SMILES strings stand for the structures. The list is a part of this screen's results and no random one: it is rich in T/C values a quarter to a half above the control, in often repeated tests (any T/C) and in doses without a T/C. Further doses and runs are listed elsewhere. T/C is the treated group as % of the vehicle group. Some doses have a count of surviving animals in place of a T/C: the source files T/C as zero there, which appears to mark a toxic dose or a test without result, not a measured value. Some doses without a T/C left all or most animals alive at the check, yet need not have been tolerated: survival well below the control is almost never listed, so the zero probably covers shortened survival too. Survivors were counted at the toxicity check, usually on the fifth day, unless a day is given; later deaths do not show. Schedule codes are those of the source, taken here to give the interval after Q, in days (D) or hours (H), and the number of doses after X. Where survival is the endpoint, the PubChem record calls one and a half times the control and up active, and a quarter to a half above the control has no call in these data; cut-offs in other NCI protocols can differ. Some entries were tested several times; their values stand side by side, smallest first. Some T/C values carry the count of animals alive at the toxicity check (mostly the fifth day); without a count, all were alive then.

The values that follow come from PubChem BioAssay AID330 (DTP/NCI, 2004).

The test relates to P388 leukemia ip, CD2F1 mice, survival T/C. Put plainly: NCI In Vivo Anticancer Drug Screen. Data for tumor model P388 Leukemia (intraperitoneal) in CD2F1 (CDF1) mice. The conditions noted are these: T/C endpoint: median survival time, higher T/C = longer survival.
Setting [1] is: dose: 200.0 mg/kg/injection, schedule: Q01DX009 (ip), vehicle: Klucel (hydroxypropylcellulose) (HPC).
Where [2] appears, read: dose: 100.0 mg/kg/injection, schedule: Q01DX009 (ip), vehicle: saline with Tween-80.
[3] abbreviates: dose: 100.0 mg/kg/injection, schedule: Q01DX009 (ip), vehicle: Klucel (hydroxypropylcellulose) (HPC).
Where [4] appears, read: dose: 200.0 mg/kg/injection, schedule: Q01DX005 (ip), vehicle: saline with Tween-80.
The mark [5] stands for this setting: dose: 12.5 mg/kg/injection, schedule: Q01DX009 (ip), vehicle: saline with Tween-80.
Where [6] appears, read: dose: 240.0 mg/kg/injection, schedule: Q01DX005 (ip), vehicle: saline with Tween-80.
Where [7] appears, read: dose: 25.0 mg/kg/injection, schedule: Q01DX009 (ip), vehicle: saline.
[8] abbreviates: dose: 50.0 mg/kg/injection, schedule: Q01DX009 (ip), vehicle: saline.
Setting [9] is: dose: 200.0 mg/kg/injection, schedule: Q01DX009 (ip), vehicle: saline.
Where [10] appears, read: dose: 400.0 mg/kg/injection, schedule: Q01DX009 (ip), vehicle: Klucel (hydroxypropylcellulose) (HPC).
[11] abbreviates: dose: 12.5 mg/kg/injection, schedule: Q01DX009 (ip), vehicle: Klucel (hydroxypropylcellulose) (HPC).
The mark [12] stands for this setting: dose: 25.0 mg/kg/injection, schedule: Q01DX009 (ip), vehicle: Klucel (hydroxypropylcellulose) (HPC).
Setting [13] is: dose: 50.0 mg/kg/injection, schedule: Q01DX009 (ip), vehicle: Klucel (hydroxypropylcellulose) (HPC).

Regarding `FC(F)(F)C1(C(F)(F)F)[O][Sb]([c]2ccccc2)([c]2ccccc2)([c]2ccccc2)[O]1`, the survivor count under setting [1] is recorded as 1 of 6.
For `CCCCC(=O)NN`, the survivor count under setting [2] was 6 of 6.
On the same count and under the same terms, the figure for `Cc1ccc(NS(=O)(=O)c2ccccc2)nc1` is 6 of 6.
For the compound `CC(=O)C1CC[C@@]2(C)C(CC[C@H]3[C@@H]4CCC[C@H]([C@H](C)O)[C@@]4(C)CC[C@@H]32)C1` (stereo partly specified), the survivor count under setting [3] is 6 of 6.
Regarding `CCCCCCC1(C(=O)OCCN(CC)CC)CCCCC1`, under setting [4], the survivor count is listed as 1 of 6.
`CN(CCC(C#N)c1ccccc1)Cc1ccccc1` (stereo unspecified): the survivor count (dose: 200.0 mg/kg/injection, schedule: Q01DX005 (ip), vehicle: Klucel (hydroxypropylcellulose) (HPC)) is 0 of 5.
Take `COC(=O)/C=C1/C(=O)N(C)c2ccccc21`: the survivor count under setting [5] is given as 6 of 6.
As for `c1ccc2c(c1)c1ccccc1c1n[se]nc21`, the survivor count is, setting by setting: (dose: 60.0 mg/kg/injection, schedule: Q01DX005 (ip), vehicle: saline with Tween-80) 3 of 6; (dose: 120.0 mg/kg/injection, schedule: Q01DX005 (ip), vehicle: saline with Tween-80) 1 of 6; under setting [6], 1 of 6.
Turning to `CCc1nc(N)nc(N)c1-c1ccc(N2CCNCC2)c([N+](=O)[O-])c1`, under setting [6], the survivor count was 0 of 6.
As to `Oc1ccccc1C=NCCC[N-]CCCN=Cc1ccccc1O.[Co]`, the T/C was 126 % of control under setting [7]; 133 and 136 % of control under setting [8]; 136 % of control (dose: 100.0 mg/kg/injection, schedule: Q01DX009 (ip), vehicle: saline). In addition, the survivor count under setting [9] is 5 of 5.
In the case of `CSc1cccc(NC(=O)Oc2c(Cl)cccc2Cl)c1`, the survivor count (dose: 200.0 mg/kg/injection, schedule: Q01DX009 (ip), vehicle: gum acacia) is listed as 6 of 6.
As for `C#CCOCCCC(=C)C`, the T/C is 144 % of control (dose: 12.5 mg/kg/injection, schedule: Q01DX009 (ip), vehicle: saline) and 144 % of control under setting [7]. Further, under setting [8], the survivor count is on record as 5 of 6.
As for `CCCCCCCCCCCCC1=NCC[N+]1(CCO)CC(O)COc1cc(Cl)c(Cl)cc1Cl` (stereo unspecified), under setting [9], the survivor count is recorded as 1 of 6.
For the compound `CC(=O)c1cc(-c2ccccn2)c(=O)n2ccccc12`, the survivor count is 6 of 6 under setting [2] and 3 of 6 (dose: 200.0 mg/kg/injection, schedule: Q01DX009 (ip), vehicle: saline with Tween-80).
`CCOC(=O)N(CCCl)N=O`: the T/C by setting is: (dose: 1.25 mg/kg/injection, schedule: Q01DX009 (ip), vehicle: saline with Tween-80) 125 and 129 % of control; (dose: 2.5 mg/kg/injection, schedule: Q01DX009 (ip), vehicle: saline with Tween-80) 127 % of control; (dose: 5.0 mg/kg/injection, schedule: Q01DX001 (ip), vehicle: saline with Tween-80) 128 % of control. Further, the survivor count runs as follows: (dose: 5.0 mg/kg/injection, schedule: Q01DX009 (ip), vehicle: saline with Tween-80) 6 of 6; (dose: 10.0 mg/kg/injection, schedule: Q01DX001 (ip), vehicle: saline with Tween-80) 6 of 6; (dose: 10.0 mg/kg/injection, schedule: Q01DX009 (ip), vehicle: saline with Tween-80) 6 of 6; (dose: 20.0 mg/kg/injection, schedule: Q01DX001 (ip), vehicle: saline with Tween-80) 1 of 6; (dose: 40.0 mg/kg/injection, schedule: Q01DX001 (ip), vehicle: saline with Tween-80) 0 of 6.
As for `CN=C(c1ccc(NC(=O)c2ccc(C(=O)Nc3ccc(C(=NC)N4CCOCC4)cc3)c(Cl)c2)cc1)N1CCOCC1`, the survivor count (dose: 1.56 mg/kg/injection, schedule: Q01DX005 (ip), vehicle: saline) is listed as 2 of 6; the survivor count (dose: 3.12 mg/kg/injection, schedule: Q01DX005 (ip), vehicle: saline) is reported as 0 of 6; the survivor count (dose: 6.25 mg/kg/injection, schedule: Q01DX005 (ip), vehicle: saline) was 0 of 6; the survivor count (dose: 12.5 mg/kg/injection, schedule: Q01DX005 (ip), vehicle: saline) is recorded as 0 of 6; the survivor count (dose: 25.0 mg/kg/injection, schedule: Q01DX005 (ip), vehicle: saline) is 0 of 6; the survivor count (dose: 50.0 mg/kg/injection, schedule: Q01DX005 (ip), vehicle: saline) is recorded as 0 of 6. Moreover, the survivor count runs as follows: (dose: 100.0 mg/kg/injection, schedule: Q01DX005 (ip), vehicle: saline) 0 of 6; (dose: 200.0 mg/kg/injection, schedule: Q01DX005 (ip), vehicle: saline) 0 of 6.
On to `CCOC(=O)NC(NC(=O)OCC)c1cccnc1`, for which the survivor count (dose: 100.0 mg/kg/injection, schedule: Q04DX003 (ip), vehicle: saline) is recorded as 6 of 6.
For `CC1CN=C(CCc2ccc(NC(=O)c3ccc(C(=O)Nc4ccc(CCC5=NCC(C)N5)cc4)cc3)cc2)N1` (stereo unspecified), the T/C (dose: 100.0 mg/kg/injection, schedule: Q01DX005 (ip), vehicle: Klucel (hydroxypropylcellulose) (HPC)) was 125 % of control. Also, the survivor count (dose: 400.0 mg/kg/injection, schedule: Q01DX005 (ip), vehicle: Klucel (hydroxypropylcellulose) (HPC)) is on record as 4 of 6.
In the case of `Cc1c(O)c(=O)ccn1CCO`, where the note is “dose: 400.0 mg/kg/injection, schedule: Q01DX005 (ip), vehicle: saline”, the T/C is 125 and 136 % of control.
On to `C[n+]1ccc(/C(C#N)=N/O)cc1`, for which, under setting [10], the survivor count is given as 1 of 6.
`C=C1C(C)C2C(Cc3ccccc3)NC(=O)C23C(OC(C)=O)/C=C/C(C)(O)CC(C)C/C=C/C3C1O` (stereo unspecified): the T/C is, setting by setting: under setting [11], 132 % of control; under setting [5], 138 % of control [4 of 6 alive]. For the same compound, the survivor count under setting [12] is reported as 1 of 6; the survivor count (dose: 25.0 mg/kg/injection, schedule: Q01DX009 (ip), vehicle: saline with Tween-80) was 1 of 6; the survivor count under setting [13] was 0 of 6.
For the compound `CNc1ccc(/C=C/c2ccnc3ccccc23)cc1`, the T/C under setting [11] was 132 % of control. Further, the survivor count reads like this: under setting [12], 6 of 6; under setting [13], 5 of 6; under setting [3], 0 of 6; under setting [1], 0 of 6; under setting [10], 0 of 6.
Regarding `CC1(C)N=C(N)N=C(N)N1c1cccc(CCC(=O)Nc2ccc(S(=O)(=O)F)cc2)c1`, the T/C (dose: 150.0 mg/kg/injection, schedule: Q01DX009 (ip), vehicle: saline with Tween-80) was 127 % of control. For the same compound, the survivor count (dose: 300.0 mg/kg/injection, schedule: Q01DX009 (ip), vehicle: saline with Tween-80) is given as 0 of 6.
`C(=N\NC1=NCCN1)/c1c[nH]c2ccccc12`: under setting [4], the survivor count was 0 of 6.
Regarding `CN(C)C(=O)c1cc(C(=O)N(C)C)cc2cccc-2c1`, the survivor count was 0 of 6 (dose: 200.0 mg/kg/injection, schedule: Q04DX002 (ip), vehicle: saline) and 0 of 6 (dose: 400.0 mg/kg/injection, schedule: Q04DX002 (ip), vehicle: saline).
With `CS(=O)(=O)OCCN(CCOS(C)(=O)=O)c1ccc(C=Nc2ccc(-c3csc(Cc4ccccc4)n3)cc2)cc1`, the T/C (dose: 6.25 mg/kg/injection, schedule: Q01DX009 (ip), vehicle: suspension in saline) is 140 % of control and the T/C under setting [7] is 141 % of control.
